# Where “and” joins values, the source holds several entries; their conditions need not be identical. Identical values can stand only once. Counter-ions that a name gives are not always drawn. ± gives the standard deviation of the averaged measurements. The list shows a part of the results. Part of the spread comes from offsets between plates or batches.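 Assay uses culture-activated primary human stellate myofibroblasts; lipid droplet recovery indicates inactivation. Measured: proportion of Hoechst-counted cells over a plate-specific Bodipy cutoff, duplicate wells, DMSO and nortriptyline as per-plate negative and positive controls. A hit scores, control-normalized, above the plate's top-tenth-percentile nortriptyline wells or ranks among its three best wells. Final well concentrations not reported.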
# Test system: primary human hepatic stellate cells (donor 1)
# Test: percent Bodipy-positive cells; higher = more lipid droplet accumulation
# Conditions: 48 h
# [1] = library stock concentration: 10 mM
# [2] = library stock concentration: 3.33 mM
# [3] = library stock concentration: 1 mM
# [4] = library stock concentration: 4.9 mM
# [5] = library stock concentration: 80 uM
# [6] = library stock concentration: 400 uM
# [7] = library stock concentration: 2 mM
smiles,measurement,setting,value
CN1CCCC(n2nc(Cc3ccc(Cl)cc3)c3ccccc3c2=O)CC1.Cl (stereo not given) [Azelastine HCl],percent Bodipy-positive cells,[1],89.5 ± 5.4%
CCC(=O)O[C@]1(C(=O)CCl)[C@@H](C)C[C@H]2[C@@H]3C[C@H](F)C4=CC(=O)C=C[C@]4(C)[C@@]3(F)[C@@H](O)C[C@@]21C [Halobetasol Propionate],percent Bodipy-positive cells,[2],9.77 ± 4.3%
same,percent Bodipy-positive cells,[1],26 ± 7.8%
CC(C)Oc1ccc2c(=O)c3cc(C(=O)O)ccc3oc2c1,percent Bodipy-positive cells,[3],13.8 ± 2.2%
same,percent Bodipy-positive cells,[1],7.25 ± 0.93%
CC(=O)N[C@H]1[C@H]([C@H](O)[C@H](O)CO)OC(C(=O)O)=C[C@@H]1NC(=N)N [Zanamivir],percent Bodipy-positive cells,[2],9.15 ± 6.3%
same,percent Bodipy-positive cells,[1],9.24 ± 0.83%
N=C(N)NCCC[C@H](N)C(=O)O [L-Arginine],percent Bodipy-positive cells,[1],36.6 ± 2.2%
Cc1nc2n(c(=O)c1CCN1CCC(c3noc4cc(F)ccc34)CC1)CCCC2 [Risperidone],percent Bodipy-positive cells,,10 ± 5.8%
same,percent Bodipy-positive cells,[2],22.5 ± 1.9%
same,percent Bodipy-positive cells,[4],11.9 ± 1.5%
same,percent Bodipy-positive cells,[1],27.7 ± 2.9%
Cc1nc2n(c(=O)c1CCN1CCC(c3noc4cc(F)ccc34)CC1)CCCC2,percent Bodipy-positive cells,[1],24.1 ± 9.4%
CNCCC(Oc1ccc(C(F)(F)F)cc1)c1ccccc1 (stereo not given) [Fluoxetine],percent Bodipy-positive cells,[1],81.7 ± 16%
CNCCC(Oc1ccc(C(F)(F)F)cc1)c1ccccc1 (stereo not given) [Fluoxetine hydrochloride],percent Bodipy-positive cells,[1],100%
C[C@@H](CN1CC(=O)NC(=O)C1)N1CC(=O)NC(=O)C1 [Dexrazoxane hydrochloride],percent Bodipy-positive cells,[1],9.44 ± 0.58%
"C[C@@H](CN1CC(=O)NC(=O)C1)N1CC(=O)NC(=O)C1 [Dexrazoxane HCl (ICRF-187, ADR-529)]",percent Bodipy-positive cells,[2],14.1 ± 3.1%
same,percent Bodipy-positive cells,[1],19.1 ± 4.9%
CC(=O)Nc1ccc(CC(=O)O)cc1,percent Bodipy-positive cells,[1],9.76 ± 3.3%
O=C(O)Cc1sc(-c2ccccc2)nc1-c1ccc(Cl)cc1 [Fentiazac],percent Bodipy-positive cells,library stock concentration: 6.1 mM,10.8 ± 1.6%
CC(=O)OCC(=O)[C@@]12N=C(C)O[C@@H]1C[C@H]1[C@@H]3CCC4=CC(=O)C=C[C@]4(C)[C@H]3[C@@H](O)C[C@@]12C [Deflazacort],percent Bodipy-positive cells,[2],9.17 ± 1.8%
same,percent Bodipy-positive cells,[1],12.7 ± 3.3%
CC(=O)OCC(=O)[C@@]12N=C(C)O[C@@H]1C[C@H]1[C@@H]3CCC4=CC(=O)C=C[C@]4(C)[C@H]3[C@@H](O)C[C@@]12C,percent Bodipy-positive cells,[1],28.1 ± 1.4%
C#CCN1C(C)=C(C(=O)OC)C(c2cccc([N+](=O)[O-])c2)C(C(=O)OCC)=C1C (stereo not given),percent Bodipy-positive cells,[1],9.48 ± 0.35%
OCc1cc(C(O)CNCCCCCCOCCCCc2ccccc2)ccc1O (stereo not given) [Salmeterol],percent Bodipy-positive cells,,34.8 ± 0.71%
same,percent Bodipy-positive cells,library stock concentration: 4.8 mM,55.7 ± 12%
same,percent Bodipy-positive cells,[1],53.4 ± 1.5%
O=c1c(O)c(-c2ccc(O)c(O)c2)oc2cc(O)c(O)c(O)c12 [Quercetagetin],percent Bodipy-positive cells,[2],9.69 ± 1.6%
CCCCCCCCCCCCCCCCOC[C@H](CO)SC(C)=O [2-thio-Acetyl MAGE],percent Bodipy-positive cells,[3],10.6 ± 4.2%
Cn1nccc1Nc1nccc(-c2ccn([C@H](CO)c3ccc(Cl)c(F)c3)c(=O)c2)n1,percent Bodipy-positive cells,[5],5.94 ± 0.59%
same,percent Bodipy-positive cells,[6],3.84 ± 1.6%
same,percent Bodipy-positive cells,[7],4.64 ± 1.3%
same,percent Bodipy-positive cells,[1],4.88 ± 0.96%
Cl.Cl.Clc1ccccc1CNC[C@H]1CC[C@H](CNCc2ccccc2Cl)CC1,percent Bodipy-positive cells,[1],99.74 ± 0.37%
CC(C)Nc1ncccn1,percent Bodipy-positive cells,[1],32.7 ± 5.9%
CC(C)(C)NC[C@H](O)c1ccc(O)c(CO)c1,percent Bodipy-positive cells,[1],37.8 ± 15%
CCOc1ccccc1OCCN[C@H](C)Cc1ccc(OC)c(S(N)(=O)=O)c1 [Tamsulosin HCl],percent Bodipy-positive cells,[4],7.67 ± 0.71%
CCCSc1ccc2nc(NC(=O)OC)[nH]c2c1 [Albendazole],percent Bodipy-positive cells,[1],89 ± 1.5%
Cn1c(-c2ccc3c(c2)OCO3)cc(=O)c2ccccc21 [Graveoline],percent Bodipy-positive cells,,9.26 ± 1.2%
CCCCCCCCCCCCC[N+](C)(C)Cc1ccccc1 [Benzalkonium chloride],percent Bodipy-positive cells,[1],51.1 ± 4.2%
"CCCCCCCCCCC/C=C\C(C)(C)/C=C\CCCC(=O)O [7,7-Dimethyl-(5Z,8Z)-eicosadienoic acid]",percent Bodipy-positive cells,[1],57.1 ± 4.1%
COc1ccc(Nc2ncnc3ccc(OC)cc23)cc1 [MPMQ hydrochloride],percent Bodipy-positive cells,[1],12 ± 1.3%
O=S(=O)(O)CCS [Mesna],percent Bodipy-positive cells,[2],14 ± 2.4%
same,percent Bodipy-positive cells,[1],11.5% and 27.6%
same,percent Bodipy-positive cells,library stock concentration: 12.2 mM,16.8 ± 2.9%
CCn1cc(C(=O)O)c(=O)c2cnc(N3CCCC3)nc21 [Piromidic acid],percent Bodipy-positive cells,,9.65 ± 4.5%
same,percent Bodipy-positive cells,[1],32.2 ± 11%
CCOC(=O)OC(C)OC1=C(C(=O)Nc2ccccn2)N(C)S(=O)(=O)c2ccccc21 (stereo not given),percent Bodipy-positive cells,[1],15.4 ± 8.5%
CCOC(=O)OC(C)OC1=C(C(=O)Nc2ccccn2)N(C)S(=O)(=O)c2ccccc21 (stereo not given) [Ampiroxicam],percent Bodipy-positive cells,[2],11.7 ± 6.1%
same,percent Bodipy-positive cells,library stock concentration: 4.5 mM,11.3 ± 3%
same,percent Bodipy-positive cells,[1],26.6 ± 22%
O=C(Nc1c(Cl)cncc1Cl)c1ccc(OC(F)F)c(OCC2CC2)c1 [Roflumilast],percent Bodipy-positive cells,[2],8.1 ± 3.9%
same,percent Bodipy-positive cells,[1],7.99 ± 1.7%
Cc1cccc(-c2[nH]c(CNc3ccccc3F)nc2-c2ccc3ncnn3c2)n1,percent Bodipy-positive cells,[5],11.9 ± 0.39%
same,percent Bodipy-positive cells,[6],11.6 ± 5.4%
same,percent Bodipy-positive cells,[7],9.65 ± 1.6%
same,percent Bodipy-positive cells,[1],10.3 ± 1.3%
CC(=O)[C@H]1CC[C@H]2[C@@H]3C[C@H](C)C4=CC(=O)CC[C@]4(C)[C@H]3[C@@H](O)C[C@]12C,percent Bodipy-positive cells,[1],36.2 ± 14%
CC(=O)[C@H]1CC[C@H]2[C@@H]3C[C@H](C)C4=CC(=O)CC[C@]4(C)[C@H]3[C@@H](O)C[C@]12C [Medrysone],percent Bodipy-positive cells,,10.4 ± 0.26%
same,percent Bodipy-positive cells,library stock concentration: 5.8 mM,5.5 ± 1.7%
same,percent Bodipy-positive cells,[1],6.84 ± 0.69%
O=C(Nc1cccc(Nc2ncc(Br)c(NCCc3c[nH]cn3)n2)c1)N1CCCC1,percent Bodipy-positive cells,[1],90.2 ± 1.9%
CCCCC/C=C\C/C=C\C/C=C\C/C=C\CCCC(=O)S[C@H](COCCCCCCCCCCCCCCCC)COP(=O)([O-])OCC[N+](C)(C)C [Arachidonoyl thio-PC],percent Bodipy-positive cells,[3],8.42 ± 2.3%
"CCCS(=O)(=O)Nc1ccc(F)c(C(=O)c2c[nH]c3ncc(-c4ccc(Cl)cc4)cc23)c1F [Vemurafenib (PLX4032, RG7204)]",percent Bodipy-positive cells,[2],9.24 ± 4.4%
same,percent Bodipy-positive cells,[1],22.6 ± 8.2%
"O=C(O)CCC/C=C\C[C@H]1C(=O)C=C[C@@H]1CC[C@@H](O)CCc1ccccc1 [17-phenyl trinor-13,14-dihydro Prostaglandin A2]",percent Bodipy-positive cells,[3],18.2 ± 0.67%
CCCCNC(=O)NS(=O)(=O)c1ccc(C)cc1,percent Bodipy-positive cells,[1],30.1 ± 8.6%
CCCCNC(=O)NS(=O)(=O)c1ccc(C)cc1 [Tolbutamide],percent Bodipy-positive cells,,28 ± 3.9%
same,percent Bodipy-positive cells,[2],10.3 ± 2%
same,percent Bodipy-positive cells,[1],15.9% and 23.5%
same,percent Bodipy-positive cells,library stock concentration: 18.5 mM,22.5 ± 2.2%
C[C@@H]1O[C@@H](O[C@H]2[C@H](Oc3cc(O)c(C(=O)CCc4ccc(O)cc4)c(O)c3)O[C@H](CO)[C@@H](O)[C@@H]2O)[C@H](O)[C@H](O)[C@H]1O [Naringin Dihydrochalcone],percent Bodipy-positive cells,[2],6.6 ± 2.8%
same,percent Bodipy-positive cells,[1],35.3 ± 8.9%
"c1ccc2c(-c3ccncc3)c[nH]c2c1 [Rho Kinase Inhibitor III, Rockout]",percent Bodipy-positive cells,[2],8.41 ± 4.9%
CC/C=C\C/C=C\C/C=C\C/C=C\C/C=C\C/C=C\CCC(=O)NCCO [Docosahexaenoyl Ethanolamide],percent Bodipy-positive cells,[3],6.98 ± 0.4%

# Reference: the supplement of paper PMC9135407
